Binding data for two substances are collected here from paper PMC5177772.

The chains behind the UniProt entries cited, without tags or fusion partners. Where a name states a change or a piece, a line headed by the entry shows the natural chain unless it says otherwise. Residues count along the entry.
UniProt Q9UPP1, residues 37-1060: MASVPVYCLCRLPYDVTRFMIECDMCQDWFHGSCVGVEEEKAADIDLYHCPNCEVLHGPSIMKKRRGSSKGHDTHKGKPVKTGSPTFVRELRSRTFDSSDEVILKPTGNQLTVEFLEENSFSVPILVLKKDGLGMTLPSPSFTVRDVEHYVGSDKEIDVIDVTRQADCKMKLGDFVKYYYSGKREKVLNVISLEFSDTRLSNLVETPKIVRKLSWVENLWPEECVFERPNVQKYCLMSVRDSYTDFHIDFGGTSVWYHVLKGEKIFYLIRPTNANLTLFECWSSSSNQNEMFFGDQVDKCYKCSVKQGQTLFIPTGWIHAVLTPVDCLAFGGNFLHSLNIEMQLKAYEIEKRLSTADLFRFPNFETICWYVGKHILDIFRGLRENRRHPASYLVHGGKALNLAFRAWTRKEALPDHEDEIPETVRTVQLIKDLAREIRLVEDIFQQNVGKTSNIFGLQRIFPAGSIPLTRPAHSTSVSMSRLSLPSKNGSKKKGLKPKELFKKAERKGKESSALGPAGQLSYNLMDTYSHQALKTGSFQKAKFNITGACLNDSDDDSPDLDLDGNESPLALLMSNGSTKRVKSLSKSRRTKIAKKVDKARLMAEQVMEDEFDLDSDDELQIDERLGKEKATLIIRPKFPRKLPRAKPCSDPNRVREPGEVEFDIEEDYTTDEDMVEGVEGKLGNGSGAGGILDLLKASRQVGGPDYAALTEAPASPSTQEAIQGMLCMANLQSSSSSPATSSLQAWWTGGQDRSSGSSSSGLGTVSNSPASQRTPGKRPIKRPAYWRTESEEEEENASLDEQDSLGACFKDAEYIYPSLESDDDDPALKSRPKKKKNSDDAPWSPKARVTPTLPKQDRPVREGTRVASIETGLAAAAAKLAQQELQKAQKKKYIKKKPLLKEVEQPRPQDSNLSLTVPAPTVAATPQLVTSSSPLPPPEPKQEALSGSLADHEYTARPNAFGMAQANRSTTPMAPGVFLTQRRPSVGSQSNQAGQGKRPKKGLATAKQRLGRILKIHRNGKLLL
UniProt P10275: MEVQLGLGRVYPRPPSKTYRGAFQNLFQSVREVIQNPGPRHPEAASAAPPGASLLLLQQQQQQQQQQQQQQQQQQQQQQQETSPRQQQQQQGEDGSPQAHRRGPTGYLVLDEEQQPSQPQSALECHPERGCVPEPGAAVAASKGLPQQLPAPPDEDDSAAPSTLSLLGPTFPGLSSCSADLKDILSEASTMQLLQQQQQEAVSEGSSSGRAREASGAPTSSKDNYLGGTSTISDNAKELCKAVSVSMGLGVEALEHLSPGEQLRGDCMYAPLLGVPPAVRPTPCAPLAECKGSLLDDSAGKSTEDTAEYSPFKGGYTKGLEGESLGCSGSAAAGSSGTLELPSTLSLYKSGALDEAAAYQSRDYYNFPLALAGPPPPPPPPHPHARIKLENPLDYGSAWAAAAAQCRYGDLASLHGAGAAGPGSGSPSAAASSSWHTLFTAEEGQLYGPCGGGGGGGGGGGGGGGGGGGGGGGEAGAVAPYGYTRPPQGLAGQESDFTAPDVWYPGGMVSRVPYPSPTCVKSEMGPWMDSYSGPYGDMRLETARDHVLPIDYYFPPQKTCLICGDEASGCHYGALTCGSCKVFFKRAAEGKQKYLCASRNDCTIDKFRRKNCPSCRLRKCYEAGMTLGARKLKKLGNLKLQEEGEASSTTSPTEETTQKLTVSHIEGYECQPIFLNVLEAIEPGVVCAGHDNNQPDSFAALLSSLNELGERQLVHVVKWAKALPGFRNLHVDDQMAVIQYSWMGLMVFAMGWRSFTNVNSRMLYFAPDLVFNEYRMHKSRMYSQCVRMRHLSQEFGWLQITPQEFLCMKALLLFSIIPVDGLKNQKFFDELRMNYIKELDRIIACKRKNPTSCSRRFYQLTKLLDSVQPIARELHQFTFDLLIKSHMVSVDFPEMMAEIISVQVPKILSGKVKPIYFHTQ

No constants are given. Whether binding was seen depends on the method and setting. Binding seen in cells or lysates may run through a third protein. Some results given as binding are weak or reduced against the parent protein; the word gives no strength.

Experiment [1] has as its target Flag-tagged PHF8 (plant homeo domain finger protein 8), wild type (UniProt Q9UPP1). In words: co-IP; Flag-PHF8 (wild type or H247A) and GFP-AR co-expressed in 293FT/HEK293T cells, with or without 10 nM DHT; lysis in RIPA buffer; immunoprecipitation with anti-Flag or anti-GFP antibody overnight at 4 °C, protein A/G-Sepharose, PBS washes; western blot. (In general: In western blotting, separated proteins are transferred to a membrane and probed.)

Experiment [2] deals with GFP-tagged androgen receptor (AR) (UniProt P10275). Described as above.

With “GFP-tagged androgen receptor (AR) (from UniProt P10275 1-920)”, in experiment [1], the binding result was “binds”.
Turning to “Flag-tagged PHF8 (plant homeo domain finger protein 8), wild type (from UniProt Q9UPP1-2 1-1024)”, in experiment [2], the binding entry is “binds”.
